Assay results published in publication PMC3042988, “The activation mechanism of Irga6, an interferon-inducible GTPase contributing to mouse resistance against Toxoplasma gondii” (BMC Biology, 2011).
No constants are given. Whether binding was seen depends on the method and setting. Binding seen in cells or lysates may run through a third protein. For some of these results: A result given as binding can be weak or reduced; the word gives no strength.

Chains of the proteins cited; added tags and fusions are not shown. Lines headed by an entry give the natural chain unless they say otherwise; changes in a name come on top.
UniProt Q9QZ85: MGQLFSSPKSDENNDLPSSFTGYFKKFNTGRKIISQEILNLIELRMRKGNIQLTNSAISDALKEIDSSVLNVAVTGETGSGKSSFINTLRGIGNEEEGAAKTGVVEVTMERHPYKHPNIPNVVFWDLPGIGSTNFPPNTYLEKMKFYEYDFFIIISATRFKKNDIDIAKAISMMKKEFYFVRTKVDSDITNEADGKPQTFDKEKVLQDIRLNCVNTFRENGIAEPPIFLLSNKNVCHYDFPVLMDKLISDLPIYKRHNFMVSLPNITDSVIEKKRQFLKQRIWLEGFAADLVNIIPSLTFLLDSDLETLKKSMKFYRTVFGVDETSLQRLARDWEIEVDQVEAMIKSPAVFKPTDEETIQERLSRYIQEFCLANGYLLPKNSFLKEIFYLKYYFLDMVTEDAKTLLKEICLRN

What was measured:
Experiment in all cases: pull-down; GST-Irga6 bound to glutathione Sepharose 4B, incubated overnight at 4°C with postnuclear supernatant of IFNγ-induced gs3T3 cells (PBS/0.1% Thesit/3 mM MgCl2) with 0.5 mM GDP; Western blot; only the target purified
[1] = biological target: GST-Irga6 mutant of Ser132 (mouse) (UniProt Q9QZ85)
[2] = biological target: GST-Irga6 mutant of Arg159 (mouse) (UniProt Q9QZ85)
[3] = biological target: GST-Irga6 mutant of Asn191 (mouse) (UniProt Q9QZ85)
[4] = biological target: GST-Irga6 mutant of Gly103 (mouse) (UniProt Q9QZ85)

B1: Irgm3 (IGTP) (protein, UniProt Q9DCE9 1-423)
chain: MDLVTKLPQNIWKTFTLFINMANYLKRLISPWSKSMTAGESLYSSQNSSSPEVIEDIGKAVTEGNLQKVIGIVKDEIQSKSRYRVKIAVTGDSGNGMSSFINALRFIGHEEEDSAPTGVVRTTKKPACYSSDSHFPYVELWDLPGLGATAQSVESYLEEMQISTFDLIIIVASEQFSSNHVKLAITMQRMRKRFYVVWTKLDRDLSTSTFPEPQLLQSIQRNIRENLQQAQVRDPPLFLISCFSPSFHDFPELRNTLQKDIFSIRYRDPLEIISQVCDKCISNKAFSLKEDQMLMKDLEAAVSSEDDTANLERGLQTYQKLFGVDDGSLQQVARSTGRLEMGSRALQFQDLIKMDRRLELMMCFAVNKFLRLLESSWWYGLWNVVTRYFRHQRHKLVIEIVAENTKTSLRKALKDSVLPPEIH
[1]
  binding: binds
[2]
  binding: no binding
[3]
  binding: no binding
[4]
  binding: binds
